Experimental data: patent EP0252380B1, “Antibiotic LL-E19020 alpha and beta” (AMERICAN CYANAMID COMPANY, priority 1986, dated 1988)
For at least one compound, name, drawing or mass did not settle the structure.

Legend:
[1] = test system: In Vitro Rumen Fermentation; experiment: Propionate enhancement activity during in vitro rumen fermentation; type: cell-based, steer
Procedure: The drugs are dissolved or suspended (sonified if necessary) in a 0.1% Tween 20-ethanol-water vehicle and 25-50 ul is added to the incubation. The reaction is terminated with 6N HCl and centrifuged at 20,000 x g. Alliquots of the superinatant are analyzed for volatile fatty acid (VFA) content by gas-liquid chromatography.

Staphylococcus aureus = experiment: Minimum inhibitory concentration by agar dilution (Table VI); type: cell-based; conditions: 7 strains tested

## C/C=C\C=C\[C@@H]1O[C@](O)([C@H](CO[C@H]2C[C@@H](OC)[C@@H](O[C@@H]3C[C@@H](OC)[C@@H](O[C@H]4C[C@H](OC)[C@H](O)[C@H](C)O4)[C@H](C)O3)[C@@H](C)O2)C(=O)NC/C=C/C=C(\C)[C@@H](OC)[C@H](C)[C@H]2C[C@H](O)[C@H](/C=C/C=C/C=C/C(=O)O)O2)[C@H](OC(=O)Cc2ccccc2)[C@H](O)C1(C)C [LL-E19020 alpha]
[1]; Table X, 0.008 PPM
  % DECREASE FROM CONTROL A:P: 0.0%
[1]; Table X, 0.031 PPM
  % DECREASE FROM CONTROL A:P: 8.4%
[1]; Table X, 0.125 PPM
  % DECREASE FROM CONTROL A:P: 19.1%
[1]; Table X, 0.500 PPM
  % DECREASE FROM CONTROL A:P: 14.1%
[1]; Table X, 2.000 PPM
  % DECREASE FROM CONTROL A:P: 16.5%
[1]; Table XI, 0.015 PPM
  % DECREASE FROM CONTROL A:P: 6.4%
[1]; Table XI, 0.031 PPM
  % DECREASE FROM CONTROL A:P: 10.7%
[1]; Table XI, 0.062 PPM
  % DECREASE FROM CONTROL A:P: 13.0%
[1]; Table XI, 0.125 PPM
  % DECREASE FROM CONTROL A:P: 12.1%
[1]; Table XI, 0.250 PPM
  % DECREASE FROM CONTROL A:P: 15.5%

## C/C=C/C=C/[C@@H]1O[C@](O)([C@H](CO[C@H]2C[C@H](OC)[C@H](O[C@@H]3C[C@H](OC)[C@@H](O[C@H]4C[C@H](OC)[C@H](O)[C@H](C)O4)[C@H](C)O3)[C@H](C)O2)C(=O)NC/C=C/C=C(\C)[C@H](OC)[C@@H](C)[C@@H]2C[C@H](O)[C@@H](/C=C/C=C/C=C\C(=O)O)O2)[C@@H](O)[C@H](OC(=O)Cc2ccccc2)C1(C)C [LL-E19020 beta]
Staphylococcus aureus
  MIC: 128 - ≧ 256
[1]; Table X, 0.008 PPM
  % DECREASE FROM CONTROL A:P: 0.6%
[1]; Table X, 0.031 PPM
  % DECREASE FROM CONTROL A:P: 7.8%
[1]; Table X, 0.125 PPM
  % DECREASE FROM CONTROL A:P: 17.4%
[1]; Table X, 0.500 PPM
  % DECREASE FROM CONTROL A:P: 18.8%
[1]; Table X, 2.000 PPM
  % DECREASE FROM CONTROL A:P: 17.6%
[1]; Table XI, 0.015 PPM
  % DECREASE FROM CONTROL A:P: 7.2%
[1]; Table XI, 0.031 PPM
  % DECREASE FROM CONTROL A:P: 9.5%
[1]; Table XI, 0.062 PPM
  % DECREASE FROM CONTROL A:P: 10.3%
[1]; Table XI, 0.125 PPM
  % DECREASE FROM CONTROL A:P: 12.2%
[1]; Table XI, 0.250 PPM
  % DECREASE FROM CONTROL A:P: 11.9%
